{"source": "paper PMC12023856", "test_system": "LvERF113-GST (Lilium hybrid cultivar 'Viviana')", "assay": "EMSA", "conditions": "Chemiluminescent EMSA kit (Beyotime); pH and temperature not stated; cold competitor 10x and 50x; recombinant protein; protein details: GST (pGEX-6P); label: biotin", "note": "For at least one entry, the source does not settle the construct or the ends of the probe. No signal at the amounts used counts as a negative.", "data": [{"sequence": "CTCTAACCACTAAAAAAACCGGTCAAATG (double strand) [proLvMYB1 GCC-box mutant probe (Mu-P3-Bio)]", "values": [{"measurement": "binding result", "result": "no binding"}]}]}
